PubChem BioAssay AID1224830, NIAID – 2016

Purpose: 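Host factors that control LPS-induced TNF expression in human macrophages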 (primary screen)
System: human THP-1 monocytic leukaemia cells, TNF dual-luciferase reporter clone, PMA-differentiated to macrophage-like cells
Reagent: siRNA pool against human genes, 50 nM
Duration: LPS for 4 h, given about 3 days after siRNA transfection
Conditions: bacterial LPS (TLR4 ligand), 10 ng/ml
Measured: 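TNF firefly reporter luminescence divided by renilla, normalised to the plate median, then turned into a robust z-score for each replicate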
Scale: TNF reporter robust z-score: higher = stronger TNF reporter response to LPS
Rule for the call: 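a well is active when its z-score exceeds 2.8 or falls below -1.5; control wells carry no call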
In all, the deposit lists about 18,000 reagents; below is an unselected part. Of all reagents, about 2,900 (16%) got an active call. 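Calls are made per well; low scores hint the gene aids the LPS response, high scores that it dampens it.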 Repeated entries: four replicate wells of each siRNA pool.

| TNF reporter robust z-score | activity call | target gene |
| --- | --- | --- |
| -1.33 | inactive | FUT3 (GeneID 2525) |
| -0.42 | inactive | FUT3 (GeneID 2525) |
| -0.74 | inactive | FUT3 (GeneID 2525) |
| -1.09 | inactive | FUT3 (GeneID 2525) |
| 0.18 | inactive | MAP2K3 (GeneID 5606) |
| 0.46 | inactive | MAP2K3 (GeneID 5606) |
| -0.32 | inactive | MAP2K3 (GeneID 5606) |
| 0.42 | inactive | DUSP21 (GeneID 63904) |
| 3.5 | active | DUSP21 (GeneID 63904) |
| 0.67 | inactive | DUSP21 (GeneID 63904) |
| -0.13 | inactive | DUSP21 (GeneID 63904) |
| -0.48 | inactive | NLRP8 (GeneID 126205) |
| -0.33 | inactive | NLRP8 (GeneID 126205) |
| 0.1 | inactive | NLRP8 (GeneID 126205) |
| 0.61 | inactive | NLRP8 (GeneID 126205) |
| -0.1 | inactive | CCDC28B (GeneID 79140) |
| -1.5 | inactive | CCDC28B (GeneID 79140) |
| -1.32 | inactive | CCDC28B (GeneID 79140) |
| -1.31 | inactive | CCDC28B (GeneID 79140) |
| 1.25 | inactive | CCDC28B (GeneID 79140) |
| 0.65 | inactive | CCDC28B (GeneID 79140) |
| 1.73 | inactive | CCDC28B (GeneID 79140) |
| 1.76 | inactive | CCDC28B (GeneID 79140) |
| 0.65 | inactive | FAM187B (GeneID 148109) |
| 0.93 | inactive | FAM187B (GeneID 148109) |
| 0.09 | inactive | FAM187B (GeneID 148109) |
| 1.99 | inactive | FAM187B (GeneID 148109) |
| -1.4 | inactive | LAMP1 (GeneID 3916) |
| 1.68 | inactive | LAMP1 (GeneID 3916) |
| -1.09 | inactive | LAMP1 (GeneID 3916) |
| -0.19 | inactive | LAMP1 (GeneID 3916) |
| 0.81 | inactive | AKT1 (GeneID 207) |
| 0.6 | inactive | AKT1 (GeneID 207) |
| -0.09 | inactive | AKT1 (GeneID 207) |
| 0.4 | inactive | AKT1 (GeneID 207) |
| 0.57 | inactive | SLC25A32 (GeneID 81034) |
| 0.73 | inactive | SLC25A32 (GeneID 81034) |
| 0.65 | inactive | SLC25A32 (GeneID 81034) |
| 1.32 | inactive | SLC25A32 (GeneID 81034) |
| -1.41 | inactive | KCNK6 (GeneID 9424) |
| -1.22 | inactive | KCNK6 (GeneID 9424) |
| -0.81 | inactive | KCNK6 (GeneID 9424) |
| -1.14 | inactive | KCNK6 (GeneID 9424) |
| 0.32 | inactive | SLC25A43 (GeneID 203427) |
| 1.18 | inactive | SLC25A43 (GeneID 203427) |
| 0.88 | inactive | SLC25A43 (GeneID 203427) |
| -0.6 | inactive | SLC25A43 (GeneID 203427) |
| 0.34 | inactive | STK16 (GeneID 8576) |
| -0.74 | inactive | STK16 (GeneID 8576) |
| -0.66 | inactive | STK16 (GeneID 8576) |
| -0.89 | inactive | STK16 (GeneID 8576) |
| -1.21 | inactive | CEP57 (GeneID 9702) |
| -0.59 | inactive | CEP57 (GeneID 9702) |
| -0.72 | inactive | CEP57 (GeneID 9702) |
| -0.33 | inactive | CEP57 (GeneID 9702) |
| 0.74 | inactive | MAOA (GeneID 4128) |
| -0.9 | inactive | MAOA (GeneID 4128) |
| -0.84 | inactive | MAOA (GeneID 4128) |
| -0.47 | inactive | MAOA (GeneID 4128) |
| -0.71 | inactive | OR6F1 (GeneID 343169) |
| -0.47 | inactive | OR6F1 (GeneID 343169) |
| -0.17 | inactive | OR6F1 (GeneID 343169) |
| -0.58 | inactive | OR6F1 (GeneID 343169) |
| -0.11 | inactive | BTN3A1 (GeneID 11119) |
| -0.06 | inactive | BTN3A1 (GeneID 11119) |
| 0.4 | inactive | BTN3A1 (GeneID 11119) |
| -0.89 | inactive | BTN3A1 (GeneID 11119) |

Records above whose gene name begins with F or f:
| TNF reporter robust z-score | activity call | target gene |
| --- | --- | --- |
| -1.33 | inactive | FUT3 (GeneID 2525) |
| -0.42 | inactive | FUT3 (GeneID 2525) |
| -0.74 | inactive | FUT3 (GeneID 2525) |
| -1.09 | inactive | FUT3 (GeneID 2525) |
| 0.65 | inactive | FAM187B (GeneID 148109) |
| 0.93 | inactive | FAM187B (GeneID 148109) |
| 0.09 | inactive | FAM187B (GeneID 148109) |
| 1.99 | inactive | FAM187B (GeneID 148109) |

More reagents follow.
| TNF reporter robust z-score | activity call | target gene |
| --- | --- | --- |
| -0.42 | inactive | LYVE1 (GeneID 10894) |
| 1.31 | inactive | LYVE1 (GeneID 10894) |
| 0.41 | inactive | LYVE1 (GeneID 10894) |
| 0.48 | inactive | LYVE1 (GeneID 10894) |
| -0.19 | inactive | MYCBPAP (GeneID 84073) |
| -0.26 | inactive | MYCBPAP (GeneID 84073) |
| -0.52 | inactive | MYCBPAP (GeneID 84073) |
| 0.12 | inactive | MYCBPAP (GeneID 84073) |
| 2.86 | active | GSG1L (GeneID 146395) |
| 1.21 | inactive | GSG1L (GeneID 146395) |
| 0.81 | inactive | GSG1L (GeneID 146395) |
| -0.27 | inactive | GSG1L (GeneID 146395) |
| -0.43 | inactive | BOP1 (GeneID 23246) |
| -0.11 | inactive | BOP1 (GeneID 23246) |
| -0.73 | inactive | BOP1 (GeneID 23246) |
| -0.61 | inactive | BOP1 (GeneID 23246) |
| -0.05 | inactive | KICS2 (GeneID 144577) |
| 1.17 | inactive | KICS2 (GeneID 144577) |
| 0.13 | inactive | KICS2 (GeneID 144577) |
| 2.06 | inactive | KICS2 (GeneID 144577) |
| -0.57 | inactive | ZFC3H1 (GeneID 196441) |
| -0.96 | inactive | ZFC3H1 (GeneID 196441) |
| -1.23 | inactive | ZFC3H1 (GeneID 196441) |
| -1.43 | inactive | ZFC3H1 (GeneID 196441) |
| -0.62 | inactive | IL1A (GeneID 3552) |
| -0.85 | inactive | IL1A (GeneID 3552) |
| -0.83 | inactive | IL1A (GeneID 3552) |
| -0.38 | inactive | IL1A (GeneID 3552) |
| -1.19 | inactive | SPRED2 (GeneID 200734) |
| -1.24 | inactive | SPRED2 (GeneID 200734) |
| -1.39 | inactive | SPRED2 (GeneID 200734) |
| 0.77 | inactive | SPRED2 (GeneID 200734) |
| 0.29 | inactive | SESN2 (GeneID 83667) |
| -0.68 | inactive | SESN2 (GeneID 83667) |
| -0.36 | inactive | SESN2 (GeneID 83667) |
| 0.65 | inactive | SESN2 (GeneID 83667) |
| -0.76 | inactive | TNMD (GeneID 64102) |
| -0.92 | inactive | TNMD (GeneID 64102) |
| -0.94 | inactive | TNMD (GeneID 64102) |
| -1.03 | inactive | TNMD (GeneID 64102) |
| 0.55 | inactive | TMEM150C (GeneID 441027) |
| 1.68 | inactive | TMEM150C (GeneID 441027) |
| 1.63 | inactive | TMEM150C (GeneID 441027) |
| -0.64 | inactive | TMEM150C (GeneID 441027) |
| -0.06 | inactive | NTSR1 (GeneID 4923) |
| -0.16 | inactive | NTSR1 (GeneID 4923) |
| 0.5 | inactive | NTSR1 (GeneID 4923) |
| 0.84 | inactive | NTSR1 (GeneID 4923) |
| -0.98 | inactive | ZNF619 (GeneID 285267) |
| -0.58 | inactive | ZNF619 (GeneID 285267) |
| -0.33 | inactive | ZNF619 (GeneID 285267) |
| 0.29 | inactive | ZNF619 (GeneID 285267) |
| 0.17 | inactive | OR4K2 (GeneID 390431) |
| 0.95 | inactive | OR4K2 (GeneID 390431) |
| 0.18 | inactive | OR4K2 (GeneID 390431) |
| 0.91 | inactive | OR4K2 (GeneID 390431) |
| -0.11 | inactive | ADAT3 (GeneID 113179) |
| 0.03 | inactive | ADAT3 (GeneID 113179) |
| -0.84 | inactive | ADAT3 (GeneID 113179) |
| -0.23 | inactive | ADAT3 (GeneID 113179) |
| -1.32 | inactive | SLC47A2 (GeneID 146802) |
| -0.45 | inactive | SLC47A2 (GeneID 146802) |
| -0.48 | inactive | SLC47A2 (GeneID 146802) |
| 0.63 | inactive | CDYL (GeneID 9425) |
| -0.33 | inactive | CDYL (GeneID 9425) |
| 0.47 | inactive | CDYL (GeneID 9425) |
| -1 | inactive | CDYL (GeneID 9425) |
| -0.18 | inactive | CRIPT (GeneID 9419) |
| 0.22 | inactive | CRIPT (GeneID 9419) |
| 0.48 | inactive | CRIPT (GeneID 9419) |
| -0.14 | inactive | CRIPT (GeneID 9419) |
| 0.48 | inactive | NOL9 (GeneID 79707) |
| -0.33 | inactive | NOL9 (GeneID 79707) |
| 0.17 | inactive | NOL9 (GeneID 79707) |
| 0.44 | inactive | NOL9 (GeneID 79707) |
